# Some of the results follow. Shown are side measurements of this screen, not its main read-out; they come without a call. The list favours compounds with an active or inconclusive main result. Potencies come from curve fits of mixed quality, noted in brackets.
# Assay: qHTS Assay for Modulators of Lamin A Splicing
# Details: HeLa LMNA splicing GFP/RFP minigene ratio, 48 h
# In short: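 Read-out is the ratio of GFP to DsRed2 object intensity, acquired by 488 nm laser-scanning cytometry on HeLa lamin A-EGFP minigene reporter cells. Compound incubation 48 hrs at 37 °C in Opti-MEM with 2% FBS; DMSO 0.5% final.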
# [1] = measured here: RFP viability control channel
# [2] = measured here: GFP splicing reporter channel
Compound,AC50 [1],AC50 [2]
Cc1cc2nc(-c3ccc(SCC(=O)N4CCN(C(=O)c5ccco5)CC4)nc3)[nH]c2cc1C,"22.4 µM [rising, single point]",
CCCCN(C)CCNC(=O)c1c2c(nc3ccccc13)C(=O)N(C1CCCCC1)C2,,"11.2 µM [falling, partial curve, poor fit]"
COc1ccc(C2CC(c3cccs3)=NN2c2ccc(C=O)cc2)cc1 (stereo not given),"12.6 µM [rising, single point]","11.2 µM [rising, single point]"
Cc1c(C(=O)NCC(c2ccc(Cl)cc2)N2CCOCC2)oc2ccccc12 (stereo not given),"0.0562 µM [falling, full curve]","0.158 µM [falling, partial curve]"
Cc1cccc(C)c1NC(=O)N1C2CCC1CC(O)(c1cccnc1)C2 (stereo not given),,"35.5 µM [falling, single point]"
CC(C)(C)OC(=O)N1CCC(c2c(C(=O)NCCN3CCc4ccccc4C3)cnn2-c2ccc(F)cc2F)CC1,,"31.6 µM [falling, partial curve]"
COc1cc(C)ccc1OCCOCCOc1ccc([N+](=O)[O-])cc1,"14.1 µM [rising, partial curve]","11.2 µM [rising, partial curve]"
Cc1noc(C)c1COC(=O)Cc1ccc(Cl)cc1,,"11.2 µM [rising, partial curve]"
CCC(=O)N1CCc2cc(Br)cc(S(=O)(=O)CCC(=O)NCCc3cccc(C)c3)c21,,"6.31 µM [rising, single point]"
Cc1cccc(OCC(=O)NNC(=O)C2CCCCC2C(=O)O)c1 (stereo not given),"0.0398 µM [falling, full curve, poor fit]","0.794 µM [falling, full curve, poor fit]"
CN1CCCN(S(=O)(=O)c2ccc(Cl)c(Cl)c2)CC1,,"0.316 µM [falling, full curve, poor fit]"
Nc1nc(/C=C/c2ccc(F)cc2)nc(-c2ccccc2O)n1,"1.26 µM [rising, full curve]","2.51 µM [rising, partial curve]"
C/C(=N\Nc1ccc(S(=O)(=O)Nc2ccc(Cl)cc2)cc1[N+](=O)[O-])c1ccc(N2CCOCC2)cc1,"6.31 µM [rising, single point]","4.47 µM [rising, single point]"
C=CCN1C(=O)S/C(=C/c2ccc(Sc3nc4ccccc4[nH]3)o2)C1=O,"3.16 µM [rising, full curve]",
COC(=O)CC1=NN(c2nc(C)cc(C)n2)C(=O)C1,"7.08 µM [falling, partial curve, poor fit]",
Cc1cc(NC(=O)CO/N=C/c2ccc3c(c2)OCO3)ccc1Br,,"0.447 µM [rising, full curve, poor fit]"
CCOC(=O)N1CCN(c2c(NCCCN(CC)Cc3ccccc3)c(=O)c2=O)CC1,"0.0891 µM [rising, partial curve, poor fit]",
Cc1cc(=O)[nH]c(SCC(=O)N(CCC#N)c2ccccc2)c1C#N,,"0.0224 µM [falling, full curve, poor fit]"
Cc1ccc(CNc2cnn(C34CC5CC(CC(C5)C3)C4)c(=O)c2Cl)cc1,"1.26 µM [rising, partial curve]",

Compound,AC50 [1],AC50 [2]
O=C(c1ccc2c(c1)N(Cc1cccc(F)c1)C(=O)c1ccccc1S2)N1CCOCC1,"0.0251 µM [falling, full curve, poor fit]",
CCN(c1ccccc1)S(=O)(=O)c1ccc(OC)c(NC(=O)CNCC(C)O)c1 (stereo not given),,"0.501 µM [falling, full curve, poor fit]"
CC1=NNC(=O)/C1=C\c1cn(-c2ccccc2)nc1-c1ccc(F)cc1,"7.08 µM [falling, full curve]","5.62 µM [falling, full curve]"
CN(C)c1ccc(C(=O)c2ccc(N(C)C)c3ccccc23)cc1,"0.1 µM [rising, full curve, poor fit]",
O=C(Cc1ccccc1)NCC1OCCc2ccccc21 (stereo not given),,"0.891 µM [falling, full curve, poor fit]"
CCN(CC)S(=O)(=O)N1CCC(C(=O)NC2CCCc3ccccc32)CC1 (stereo not given),"35.5 µM [rising, single point]",
CCCCc1ccc(NC(=S)Nc2ccc(Nc3ccc(OC)cc3)cc2)cc1,"15.8 µM [rising, single point]",
Cc1ccccc1CN1C(=O)c2ccccc2S(=O)c2ccc(C(=O)NC3CCC(C)CC3)cc21 (stereo not given),"0.01 µM [falling, full curve, poor fit]","0.00891 µM [falling, full curve, poor fit]"
N#C/C(=C/c1ccc(-c2ccc(S(N)(=O)=O)cc2)o1)c1nc2ccccc2s1,"14.1 µM [falling, partial curve]","11.2 µM [falling, partial curve]"
Cc1ccc(Nc2nc(N)c([N+](=O)[O-])c(N3CCCC(C)C3)n2)cc1C (stereo not given),"35.5 µM [falling, single point]","35.5 µM [falling, single point]"
Cc1ccc(-c2nc(CSc3nc4ccccc4c(=O)n3C)cs2)cc1,"10 µM [rising, single point]","3.55 µM [rising, single point]"
N#C/C(=C\C=C\c1ccccc1)C(=O)Nc1ccccc1,"11.2 µM [rising, partial curve]","6.31 µM [rising, partial curve, poor fit]"
CC(C)c1nnc(SCC(=O)N2CCN(C(=O)c3ccco3)CC2)n1N,,"0.00447 µM [falling, full curve, poor fit]"
O=[N+]([O-])c1cccc(N/N=C/c2cccc3ccccc23)c1,"35.5 µM [rising, single point]",
CC(=O)Nc1c([N+](=O)[O-])cc(C)c(Cl)c1[N+](=O)[O-],,"0.282 µM [falling, partial curve]"
CC1CCN(S(=O)(=O)c2ccc(Cl)cc2)CC1,"35.5 µM [rising, single point]","22.4 µM [rising, single point]"
C1=C(c2ccc(-c3ccccc3)cc2)Nc2ncnn2C1c1ccco1 (stereo not given),"35.5 µM [falling, single point]","35.5 µM [falling, single point]"
Cc1ccc(C2CCN(C(=O)Nc3ccccc3)C2)cc1 (stereo not given),,"11.2 µM [rising, partial curve]"
CSc1ccc(/C=C/C(=O)OCC(=O)N(C)CCC#N)cc1,,"11.2 µM [falling, partial curve, poor fit]"

Compound,AC50 [1],AC50 [2]
c1ccc(Cn2nnc3c(N4CCCCCC4)ncnc32)cc1,"35.5 µM [rising, single point]",
O=C(N/N=C/c1ccc([N+](=O)[O-])cc1)c1cccc2cc[nH]c12,"10 µM [rising, partial curve, poor fit]",
O=C(OCc1nc2ccccc2s1)c1cccc(S(=O)(=O)N2CCOCC2)c1,"12.6 µM [rising, single point]","14.1 µM [rising, single point]"
CCN1CCN(C(=S)NC(=O)/C=C/c2cccs2)CC1,"7.08 µM [falling, full curve]","20 µM [falling, partial curve]"
COc1ccccc1CCn1c(=O)c(-c2cccc(Cl)c2)nc2cncnc21,,"11.2 µM [falling, partial curve, poor fit]"
CCSc1nc2ccccc2n1C(=O)/C=C/c1ccc(OC)c(OC)c1,"3.55 µM [falling, single point]","3.16 µM [falling, full curve]"
COC(=O)c1cn(CCOc2ccccc2OC)c2ccccc12,"25.1 µM [rising, single point]","35.5 µM [rising, single point]"
CCCn1c(Sc2nnnn2-c2ccccc2)n[nH]c1=O,"11.2 µM [rising, single point]",
O=C(CSc1nc2ccccc2o1)Nc1cc(C(F)(F)F)ccc1N1CCOCC1,"31.6 µM [rising, single point]",
COC(=O)c1c(NC(NC(C)=O)C(Cl)(Cl)Cl)sc2c1CCCC2 (stereo not given),"31.6 µM [rising, single point]",
CCOC(=O)c1cc(-c2ccc(N)cc2)sc1N,"20 µM [rising, single point]",
Cc1cccc(N2CCN(CCCNc3ncnc4onc(-c5ccc(Cl)cc5)c34)CC2C)c1 (stereo not given),,"10 µM [falling, partial curve, poor fit]"
O=C(Nc1ccc(S(=O)(=O)N2CCN(Cc3ccccc3)CC2)cc1)c1cnccn1,"3.55 µM [rising, full curve]",
CCc1nnc(NS(=O)(=O)c2ccc(N/C=C\C(=O)c3cccc(OC)c3)cc2)s1,"0.0251 µM [rising, full curve, poor fit]",
O=[N+]([O-])c1ccc(Sc2n[nH]c(-c3ccc(Cl)cc3Cl)n2)nc1,"0.501 µM [rising, partial curve, poor fit]","11.2 µM [rising, partial curve]"
O=C(NCc1ccc2c(c1)OCO2)c1ccc(COc2cc(Cl)ccc2Cl)o1,"15.8 µM [rising, single point]",
CN(C)c1ccc(-c2n(C)c3ccccc3[n+]2C)cc1,"3.55 µM [rising, partial curve, poor fit]",
COC(=O)c1c(NC(=O)CN2CCN(c3ccccc3Cl)CC2)sc(C)c1C,"22.4 µM [rising, partial curve, poor fit]",

# Looked up above:
# In AC50 [1], CCOC(=O)c1cc(-c2ccc(N)cc2)sc1N is entered as 20 µM [rising, single point]
# In AC50 [1], COC(=O)c1c(NC(=O)CN2CCN(c3ccccc3Cl)CC2)sc(C)c1C is entered as 22.4 µM [rising, partial curve, poor fit]
# In AC50 [1], O=C(N/N=C/c1ccc([N+](=O)[O-])cc1)c1cccc2cc[nH]c12 is entered as 10 µM [rising, partial curve, poor fit]
# In AC50 [1], O=C(Nc1ccc(S(=O)(=O)N2CCN(Cc3ccccc3)CC2)cc1)c1cnccn1 is entered as 3.55 µM [rising, full curve]

# Source: PubChem BioAssay AID1487 (National Center for Advancing Translational Sciences (NCATS), 2009)
